One compound from paper PMC7435877 (Molecules, 2020) can be followed below.

The subject of the assay is A549. Description: In vitro antiproliferative activity, SRB assay, A549. In kind it is cell-based. To be noted: Homo sapiens, A549, 72 h, read-out: Antiproliferative activity IC50, A549.

With `COc1cc2c(c(OC)c1OC)-c1ccc(OC)c(=O)cc1[C@@H](NC(C)=O)CC2` [Compound 1, Colchicine, reference compound], the IC50 was 45.2 ± 18.6 nM.

In general, IC50 refers to the concentration that inhibits the measured activity by half.
